According to article PMC3070698:
Construct, isoform or probe ends are uncertain for at least one entry. Where cells or extracts were used, other partners may take part. Protein sequences can lack the tags named with them.

Target: T1, TLR9-EGFP (UniProt Q9NR96)
T1 sequence (looked up, limits assumed): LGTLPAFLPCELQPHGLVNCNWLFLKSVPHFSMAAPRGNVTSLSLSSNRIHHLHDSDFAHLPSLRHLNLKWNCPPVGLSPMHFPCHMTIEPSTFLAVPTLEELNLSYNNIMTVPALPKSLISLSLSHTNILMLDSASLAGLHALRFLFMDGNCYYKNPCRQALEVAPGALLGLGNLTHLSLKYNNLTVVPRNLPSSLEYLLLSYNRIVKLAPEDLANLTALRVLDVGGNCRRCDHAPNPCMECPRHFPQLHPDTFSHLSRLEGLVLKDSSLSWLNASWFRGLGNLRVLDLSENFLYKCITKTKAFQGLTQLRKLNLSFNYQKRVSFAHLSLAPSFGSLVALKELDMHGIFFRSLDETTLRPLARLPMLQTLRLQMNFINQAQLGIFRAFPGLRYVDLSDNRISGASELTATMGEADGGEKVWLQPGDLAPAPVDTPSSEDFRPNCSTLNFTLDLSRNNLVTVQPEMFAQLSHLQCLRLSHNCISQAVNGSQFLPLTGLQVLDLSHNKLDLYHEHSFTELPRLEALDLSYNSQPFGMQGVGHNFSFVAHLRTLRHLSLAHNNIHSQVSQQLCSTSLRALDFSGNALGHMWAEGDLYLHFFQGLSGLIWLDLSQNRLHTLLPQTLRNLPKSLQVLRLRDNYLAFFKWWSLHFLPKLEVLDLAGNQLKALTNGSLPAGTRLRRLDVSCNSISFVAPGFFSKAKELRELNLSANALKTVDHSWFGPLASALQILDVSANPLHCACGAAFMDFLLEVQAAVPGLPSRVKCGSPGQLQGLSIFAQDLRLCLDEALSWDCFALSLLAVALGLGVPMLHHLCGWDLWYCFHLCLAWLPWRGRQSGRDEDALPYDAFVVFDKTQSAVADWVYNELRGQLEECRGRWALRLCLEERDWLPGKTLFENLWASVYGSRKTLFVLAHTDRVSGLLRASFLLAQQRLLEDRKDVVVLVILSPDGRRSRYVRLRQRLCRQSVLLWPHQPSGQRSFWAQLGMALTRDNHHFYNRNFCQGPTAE
Assay: FCCS (live cell)
Conditions: live HEK 293 cells, Kd calculated with TLR9 dimer concentration, 2:1 TLR9:DNA by 2dPCH; phosphorothioate backbone; In live HEK 293 cells (intracellular, endosomal compartments); protein in a lysate after overexpression; protein details: C-terminal EGFP; label: 3' Cy5; single-stranded DNA

## TCGTCGTTTTGTCGTTTTGTCGTT [CpG DNA]
  Kd: 62 nM

## TGCTGCTTGTGCTTTTGTGCTT [non CpG DNA]
  Kd: 153 nM
